According to the M2OR odorant receptor database:
This is a selection; strong and weak results do not stand in their true shares. Calls are pooled over several reports, among them a noisy single-well screen. Some of the results follow.

Experiments:
Conditions in all cases: stereoisomer not certain
OR4L1 = system: T1, OR4L1
T1 sequence (whole entry): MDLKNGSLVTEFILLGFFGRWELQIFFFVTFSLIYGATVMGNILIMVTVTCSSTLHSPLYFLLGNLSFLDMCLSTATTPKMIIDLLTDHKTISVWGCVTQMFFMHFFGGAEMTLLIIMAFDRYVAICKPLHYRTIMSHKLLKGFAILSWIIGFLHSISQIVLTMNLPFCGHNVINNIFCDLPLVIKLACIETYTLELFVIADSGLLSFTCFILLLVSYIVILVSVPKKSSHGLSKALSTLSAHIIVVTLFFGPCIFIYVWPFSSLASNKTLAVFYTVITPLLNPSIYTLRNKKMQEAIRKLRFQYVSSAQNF
Summary of the method: (§1)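 Whether a receptor–molecule pair is responsive (active) rests on the original authors' judgment that its measured signal was statistically different from baseline. Pairs without that judgment are non-responsive (inactive). Sources used varied assay methods, commonly transient luciferase assays in mammalian cell lines.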

OR4M1 (Homo sapiens) = biological target: T2, OR4M1 (Homo sapiens) (UniProt Q8NGD0)
T2 sequence (whole entry): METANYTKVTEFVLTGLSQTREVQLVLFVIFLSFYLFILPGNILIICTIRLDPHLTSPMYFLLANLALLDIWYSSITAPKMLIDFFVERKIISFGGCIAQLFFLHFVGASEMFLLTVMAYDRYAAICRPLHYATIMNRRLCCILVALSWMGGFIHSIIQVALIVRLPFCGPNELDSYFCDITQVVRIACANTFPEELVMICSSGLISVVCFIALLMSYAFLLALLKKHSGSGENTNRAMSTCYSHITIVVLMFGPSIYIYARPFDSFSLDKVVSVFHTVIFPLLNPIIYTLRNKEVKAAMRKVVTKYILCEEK
Summary of the method: as §1

OR4N2 (Homo sapiens) = biological target: T3, OR4N2 (Homo sapiens) (UniProt Q8NGD1)
T3 sequence (whole entry): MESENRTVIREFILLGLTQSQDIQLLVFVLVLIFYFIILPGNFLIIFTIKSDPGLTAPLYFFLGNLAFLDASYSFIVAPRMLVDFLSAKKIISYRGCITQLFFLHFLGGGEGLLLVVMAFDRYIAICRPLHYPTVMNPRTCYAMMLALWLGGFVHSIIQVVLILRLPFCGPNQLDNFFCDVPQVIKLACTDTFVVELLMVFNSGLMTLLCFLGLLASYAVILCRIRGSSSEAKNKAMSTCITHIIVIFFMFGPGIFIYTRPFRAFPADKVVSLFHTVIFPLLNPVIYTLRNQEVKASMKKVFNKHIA
Summary of the method: as §1

OR4N4 (Homo sapiens) = biological target: T4, OR4N4 (Homo sapiens) (UniProt Q8N0Y3)
T4 sequence (whole entry): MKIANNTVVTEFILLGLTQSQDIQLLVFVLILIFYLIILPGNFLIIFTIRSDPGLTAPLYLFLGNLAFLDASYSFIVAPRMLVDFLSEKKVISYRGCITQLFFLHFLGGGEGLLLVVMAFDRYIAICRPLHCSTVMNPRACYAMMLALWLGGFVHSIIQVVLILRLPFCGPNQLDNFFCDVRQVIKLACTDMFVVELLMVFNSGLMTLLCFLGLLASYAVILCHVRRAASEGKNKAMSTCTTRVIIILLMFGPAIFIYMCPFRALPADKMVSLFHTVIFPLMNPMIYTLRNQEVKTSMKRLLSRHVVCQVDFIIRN
Summary of the method: as §1

OR4N5 (Homo sapiens) = biological target: T5, OR4N5 (Homo sapiens) (UniProt Q8IXE1)
T5 sequence (whole entry): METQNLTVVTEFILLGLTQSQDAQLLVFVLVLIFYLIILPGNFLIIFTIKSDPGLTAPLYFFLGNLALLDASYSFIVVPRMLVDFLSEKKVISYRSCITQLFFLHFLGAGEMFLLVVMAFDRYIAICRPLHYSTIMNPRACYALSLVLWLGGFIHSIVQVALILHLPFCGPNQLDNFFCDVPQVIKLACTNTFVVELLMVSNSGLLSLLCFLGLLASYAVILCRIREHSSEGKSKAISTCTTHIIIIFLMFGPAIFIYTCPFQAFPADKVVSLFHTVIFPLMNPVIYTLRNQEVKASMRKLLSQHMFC
Summary of the method: as §1

OR4P4 [1] = system: T6, OR4P4
T6 sequence (whole entry): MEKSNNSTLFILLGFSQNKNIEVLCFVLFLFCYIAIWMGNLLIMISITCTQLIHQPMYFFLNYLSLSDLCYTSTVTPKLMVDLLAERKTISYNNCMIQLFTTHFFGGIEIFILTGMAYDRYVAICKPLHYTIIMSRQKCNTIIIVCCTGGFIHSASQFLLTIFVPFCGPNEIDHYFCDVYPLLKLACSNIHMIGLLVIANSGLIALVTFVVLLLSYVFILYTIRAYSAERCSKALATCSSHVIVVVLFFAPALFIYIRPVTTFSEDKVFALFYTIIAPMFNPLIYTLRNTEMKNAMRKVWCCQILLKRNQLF
Summary of the method: as §1

OR4P4 [2] = system: T7, OR4P4; remark: listed apart in the source
T7 sequence (whole entry): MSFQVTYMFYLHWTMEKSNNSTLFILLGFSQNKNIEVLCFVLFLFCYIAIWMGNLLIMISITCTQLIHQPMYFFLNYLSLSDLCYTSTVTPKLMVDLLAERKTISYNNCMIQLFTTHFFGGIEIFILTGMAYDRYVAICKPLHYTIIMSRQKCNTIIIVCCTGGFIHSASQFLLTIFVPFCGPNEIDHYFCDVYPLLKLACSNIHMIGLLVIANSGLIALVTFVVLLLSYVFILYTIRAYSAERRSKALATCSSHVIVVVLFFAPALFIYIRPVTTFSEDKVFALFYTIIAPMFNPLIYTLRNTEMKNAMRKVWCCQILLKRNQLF
Summary of the method: as §1

OR4Q3 (Homo sapiens) = biological target: T8, OR4Q3 (Homo sapiens) (UniProt Q8NH05)
T8 sequence (whole entry): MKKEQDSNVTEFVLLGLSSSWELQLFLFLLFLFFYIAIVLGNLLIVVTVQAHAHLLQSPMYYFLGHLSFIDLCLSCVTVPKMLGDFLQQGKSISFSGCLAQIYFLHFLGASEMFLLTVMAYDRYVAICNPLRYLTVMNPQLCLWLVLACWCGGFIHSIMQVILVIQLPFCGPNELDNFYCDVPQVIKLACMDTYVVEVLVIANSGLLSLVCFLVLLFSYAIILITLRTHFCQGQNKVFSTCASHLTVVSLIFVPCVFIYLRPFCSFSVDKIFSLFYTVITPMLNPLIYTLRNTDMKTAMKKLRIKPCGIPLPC
Summary of the method: as §1

OR4S1 (Homo sapiens) = biological target: T9, OR4S1 (Homo sapiens) (UniProt Q8NGB4)
T9 sequence (whole entry): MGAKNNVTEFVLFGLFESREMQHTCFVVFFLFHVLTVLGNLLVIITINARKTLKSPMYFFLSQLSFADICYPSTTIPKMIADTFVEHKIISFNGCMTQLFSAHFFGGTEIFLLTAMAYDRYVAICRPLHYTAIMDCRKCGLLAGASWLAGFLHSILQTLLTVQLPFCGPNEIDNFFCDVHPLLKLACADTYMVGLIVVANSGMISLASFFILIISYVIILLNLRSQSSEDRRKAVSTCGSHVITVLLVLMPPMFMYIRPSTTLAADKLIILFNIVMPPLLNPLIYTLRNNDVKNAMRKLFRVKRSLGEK
Summary of the method: as §1

OR4S2 (Homo sapiens) = biological target: T10, OR4S2 (Homo sapiens) (UniProt Q8NH73)
T10 sequence (whole entry): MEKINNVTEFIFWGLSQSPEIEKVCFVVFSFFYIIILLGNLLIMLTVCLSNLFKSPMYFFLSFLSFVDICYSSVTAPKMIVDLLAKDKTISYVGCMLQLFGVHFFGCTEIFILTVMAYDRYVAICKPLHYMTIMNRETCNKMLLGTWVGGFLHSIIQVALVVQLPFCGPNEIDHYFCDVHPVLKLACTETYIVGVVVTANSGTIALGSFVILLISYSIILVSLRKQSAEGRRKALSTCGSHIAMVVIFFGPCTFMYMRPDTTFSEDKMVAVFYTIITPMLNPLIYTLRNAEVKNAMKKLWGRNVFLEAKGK
Summary of the method: as §1

Measured: odorant receptor agonist call;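 note: active if original authors judged signal statistically different from baseline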

CCC(C)=O
inactive: all assays above
